Measurements as given in the supplement of paper PMC3334620.
Over roughly 33,000 sequences, “E-score (-0.5 to 0.5)” has its median near -0.0014; the highest 2% begin near 0.25. This is one part of the list.

Each sequence was assayed against T1, Cad1 (UniProt P24813) (assay: PBM E-score (8-mer binding enrichment) (E-score (-0.5 to 0.5)); higher = stronger / more preferred TF binding). Conditions: protein concentration: 100 nM; construct: GST-full length.
T1 sequence: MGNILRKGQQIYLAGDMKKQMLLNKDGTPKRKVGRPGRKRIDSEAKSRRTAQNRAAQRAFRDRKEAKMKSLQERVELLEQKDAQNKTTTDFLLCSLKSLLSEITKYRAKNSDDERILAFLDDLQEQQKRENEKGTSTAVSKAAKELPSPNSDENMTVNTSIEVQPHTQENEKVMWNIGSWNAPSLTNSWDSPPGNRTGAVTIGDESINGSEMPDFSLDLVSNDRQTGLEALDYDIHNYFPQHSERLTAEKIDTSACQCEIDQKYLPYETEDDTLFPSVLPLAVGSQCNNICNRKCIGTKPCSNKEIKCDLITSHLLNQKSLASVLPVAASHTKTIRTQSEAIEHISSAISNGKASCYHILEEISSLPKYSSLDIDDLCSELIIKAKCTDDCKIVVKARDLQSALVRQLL
In short: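 Masliner-normalised scans of fluorescent anti-GST signal were the basis for scoring. That signal came from GST-tagged yeast transcription factors applied at about 100-200 nM to double-stranded universal all-10-mer Agilent arrays on fresh or once-stripped slides. Each ungapped eight-base word, pooled with its reverse complement, received an E-score from the Universal PBM Analysis Suite.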

Row | Sequence | PBM E-score
1 | ATCTTGTA | -0.0635
2 | TACGGACA | 0.154
3 | AGAATGTC | -0.102
4 | GACAGTGA | 0.0252
5 | TAAGCCAA | 0.109
6 | TACACGCA | -0.123
7 | ACACAATA | 0.0881
8 | GAAAGCGA | 0.0779
9 | AACTGCTA | -0.0703
10 | CCCAAAGA | -0.0725
11 | CAGGTGTC | 0.0539
12 | AGCCTCTG | -0.281
13 | ACATCCAT | -0.0237
14 | GATCTAGA | -0.00886
15 | AACTAAGA | -0.00681
16 | AGATTTCA | -0.0418
17 | TATTAAGA | 0.0149
18 | GTATTTGA | 0.00258
19 | ATCTATTC | 0.0621
20 | GGAGCGAA | -0.0168
21 | ATGGCATC | 0.0656
22 | CGGTACGC | 0.0976
23 | GGGTCACA | -0.233
24 | GGGCAGTA | -0.0606
25 | CCTGTTCC | -0.0993

Row | Sequence | PBM E-score
26 | CGTCGCAC | -0.0397
27 | ACGGGATG | 0.0427
28 | TCGAAGCA | -0.0922
29 | CGCCATAA | 0.0576
30 | GAGAACAC | 0.15
31 | GAACCACA | 0.154
32 | GACGTGAC | -0.0386
33 | CGGACGTC | 0.026
34 | ACCCAGAT | 0.0101
35 | ATAAGTCC | 0.0997
36 | ACACACCA | 0.198
37 | GTAGACGA | -0.103
38 | CCTACGCC | -0.297
39 | AGAGCGAG | -0.0569
40 | ATCACGCC | -0.0305
41 | GACCAACA | 0.201
42 | ATAGAAGA | -0.136
43 | ACATAGGT | 0.0292
44 | GCATCATA | 0.296
45 | GAAAGTAC | -0.0278
46 | AGAGCCCC | -0.35
47 | CCACATAC | 0.0512
48 | ACACTTGA | -0.0504
49 | TCATAGAA | 0.206
50 | GACGATAC | 0.00972

Row | Sequence | PBM E-score
51 | AATTTAAT | 0.252
52 | GCGAGAGC | -0.00302
53 | AGACAATA | 0.0599
54 | ACCGCTAA | 0.212
55 | CATTATCA | 0.19
56 | AGCGAAAG | -0.172
57 | TAGTATGA | 0.162
58 | CGAAAGAG | 0.0669
59 | GCAAATGA | -0.0799
60 | CAAATGCA | 0.113
61 | AATTTGCT | 0.0891
62 | ATATTGGA | -0.111
63 | TCAGGAAA | 0.0803
64 | CTCGGTCA | -0.0426
65 | AAGTGATC | -0.0506
66 | CCGAGCCA | -0.0105
67 | ACCCGGGG | -0.19
68 | TAGTGGGA | -0.225
69 | GATTACGC | 0.182
70 | ACAAGTCA | -0.114
71 | AGATGCTA | -0.091
72 | ACACGTGG | 0.0688
73 | ATGACAGG | 0.00398
74 | AAATGCAT | 0.198
75 | CTGTCGGA | 0.101

Row | Sequence | PBM E-score
76 | AACATGGG | -0.00868
77 | GGCATAAC | 0.0911
78 | TGCAGGCA | -0.0106
79 | TACAGTGA | 0.0738
80 | CCAATCGC | 0.0869
81 | AGCAAGGC | -0.112
82 | TCCAGCCA | -0.105
83 | ACCCTTGG | -0.251
84 | ACCTGGAG | -0.099
85 | TACTGCAA | -0.00783
86 | ATTACGTC | 0.118
87 | CGCATAAC | 0.0795
88 | AACTTGCT | -0.105
89 | TATTCCGA | 0.176
90 | CACGATTC | 0.0636
91 | AACAAGGC | 0.00964
92 | GACTTCCC | -0.145
93 | CGAAACAC | 0.188
94 | GCTCGACA | -0.0745
95 | CAGGCCTC | -0.226
96 | GGACGGGA | -0.181
97 | GAGTAAGA | 0.111
98 | GCTTAACC | -0.0586
99 | AACCACTA | -0.028
100 | ACGATCGA | 0.254

5 entries picked at random from the list so far:
Row | Sequence | PBM E-score
92 | GACTTCCC | -0.145
46 | AGAGCCCC | -0.35
65 | AAGTGATC | -0.0506
66 | CCGAGCCA | -0.0105
62 | ATATTGGA | -0.111

More records follow:

Row | Sequence | PBM E-score
101 | AGTGCAGC | 0.101
102 | ATCACGGC | 0.126
103 | GTTCCTGA | -0.0824
104 | AATATGAT | 0.247
105 | AGTGACGC | -0.104
106 | CGCTTTTA | 0.0966
107 | CTAGAGGC | -0.226
108 | GTGCCGGA | 0.0729
109 | CCGTCTCG | 0.0704
110 | CCATAGCG | -0.00195
111 | ATTGTCCG | 0.271
112 | AATTGCCA | 0.124
113 | GGTACAAA | -0.0202
114 | CTCGATGA | 0.00953
115 | AACACCTC | -0.0988
116 | CGCATCGA | 0.023
117 | AGCCAGCT | 0.0239
118 | TATCACCA | 0.0661
119 | AATGCCGT | 0.107
120 | AGGACGAA | 0.0126
121 | CTCGCCCA | -0.0333
122 | TAAAGCAA | 0.161
123 | CATTGCAA | -0.0981
124 | AGCCTTCA | 0.0108
125 | CTAGTGAC | -0.0382

Row | Sequence | PBM E-score
126 | TGCAGCCA | 0.0846
127 | CATGAGCC | -0.137
128 | ATTGGGGA | -0.233
129 | AATCACTA | 0.121
130 | CGCAGTAG | -0.0245
131 | GAACCTAA | 0.0369
132 | GGAGGGAA | -0.0505
133 | CGCCAAAC | -0.0518
134 | GGCGATCA | -0.165
135 | CCTATACC | -0.224
136 | AGATTGGA | -0.0081
137 | CAGACAGG | -0.16
138 | AATACAAA | 0.201
139 | ACGCGGTG | -0.019
140 | GAAGATGC | -0.223
141 | CCGATATC | 0.222
142 | AAGGGCTG | -0.304
143 | AATGGTGA | -0.129
144 | GCCATAGA | -0.158
145 | AGAAATAA | 0.206
146 | AATCTTAA | 0.0955
147 | CGGCGAAA | 0.199
148 | AGACTTAA | -0.0384
149 | CGGGCTGA | -0.0677
150 | ATCCGGAG | 0.19

Part of the list above, reformatted.
Row,Sequence,PBM E-score
146,AATCTTAA,0.0955
147,CGGCGAAA,0.199
148,AGACTTAA,-0.0384
149,CGGGCTGA,-0.0677
150,ATCCGGAG,0.19

Going on with the list:

Row | Sequence | PBM E-score
151 | CGCCTGTA | -0.0217
152 | AATAAATG | 0.0809
153 | AAACAATG | 0.16
154 | ACATGCAT | 0.124
155 | GTGGATGA | 0.0866
156 | CCCACCGG | -0.278
157 | GTGGGCTA | -0.0266
158 | AGAAGTCG | -0.0485
159 | CATGTCTA | -0.139
160 | ATTGACGA | 0.0925
161 | ATGCAAAC | 0.0079
162 | GTCAGAGA | -0.0855
163 | TTATGGAA | -0.0749
164 | CCCATAAA | -0.0945
165 | CAGCCTGA | -0.131
166 | ACTTTTAC | 0.197
167 | GAGTCCCC | -0.229
168 | ATCCAATC | -0.0344
169 | ACTTAGAA | -0.0161
170 | AGCACGGC | 0.0913
171 | ACAGGAGT | -0.0278
172 | TACGCTGA | 0.275
